From PubChem BioAssay AID540275 (National Center for Advancing Translational Sciences (NCATS), 2011)
Among all 320,000 compounds or so, about 620 (0.19%) were called active. Inconclusive means that the source gave no clear call. Such entries were picked first, then a sample of the others. Rule as the data show it: active = activation above about 80%; inconclusive = between about 30% and that limit; inactive = weaker than that.

The chains behind the UniProt entries cited, without tags or fusion partners.
UniProt Q8NER1, whole entry, looked up: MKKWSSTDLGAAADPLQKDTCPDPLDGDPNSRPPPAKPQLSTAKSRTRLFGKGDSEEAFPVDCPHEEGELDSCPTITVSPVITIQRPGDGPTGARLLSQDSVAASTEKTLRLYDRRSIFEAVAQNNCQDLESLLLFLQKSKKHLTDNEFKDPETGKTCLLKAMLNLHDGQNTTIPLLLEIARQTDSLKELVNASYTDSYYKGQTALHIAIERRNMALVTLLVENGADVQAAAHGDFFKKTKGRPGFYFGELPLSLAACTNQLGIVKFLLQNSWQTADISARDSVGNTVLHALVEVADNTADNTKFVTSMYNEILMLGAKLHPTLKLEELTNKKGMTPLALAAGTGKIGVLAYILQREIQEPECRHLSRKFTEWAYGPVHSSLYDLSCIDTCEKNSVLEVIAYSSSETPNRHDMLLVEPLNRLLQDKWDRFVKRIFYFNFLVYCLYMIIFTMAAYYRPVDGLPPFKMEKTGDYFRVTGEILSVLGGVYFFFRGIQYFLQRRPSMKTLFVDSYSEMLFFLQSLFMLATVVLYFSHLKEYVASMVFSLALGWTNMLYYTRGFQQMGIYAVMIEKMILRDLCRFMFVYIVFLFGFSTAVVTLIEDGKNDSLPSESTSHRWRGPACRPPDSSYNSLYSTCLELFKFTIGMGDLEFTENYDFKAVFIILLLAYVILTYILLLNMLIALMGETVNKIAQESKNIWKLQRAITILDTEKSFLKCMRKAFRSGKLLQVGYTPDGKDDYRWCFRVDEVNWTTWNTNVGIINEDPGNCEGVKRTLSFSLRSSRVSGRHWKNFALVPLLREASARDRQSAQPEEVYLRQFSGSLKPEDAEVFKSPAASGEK

These compounds were tested against Transient receptor potential cation channel subfamily V member 1 (Homo sapiens) (UniProt Q8NER1) (assay: HTS Assay for Compounds that Act as Agonists of the Vanilloid Receptor 1). Conditions: TRPV1-expressing cells, Fluo-8 calcium influx, agonist mode; at 8.33 µM, hits give high values.
In short: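 Cells expressing TRPV1 were dye-loaded with Fluo-8 and read kinetically: 10 s baseline, 3 min after compound (agonist portion), then 2 min after EC20 capsaicin (allosteric enhancer portion). Calcium-bound dye fluorescence at 480/520 nm.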
Also: 0% is about no effect.

Compound | activation
O=C(N/N=C/c1ccc2c(c1)OCCO2)c1ccncc1 | inactive: 17.4%
CCCCC(CC)CNC(=O)c1cc2ccccc2c(=O)o1 (centres undefined) | inconclusive: 39.3%
Clc1ccccc1CN(Cc1ccco1)Cc1nnnn1C1CCCC1 | inactive: 1.79%
CCOP(=O)(OCC)C(NC(=O)c1ccc(OC)cc1)c1ccccc1 (centres undefined) | inactive: 2.61%
O=C(CN1C(=O)NC2(CCCCCC2)C1=O)Nc1ccc2c(c1)CCC2 | inconclusive: 43.2%
Cc1cc2ncc(-c3cccs3)nc2cc1C | inactive: 8.06%
Fc1ccc(C2c3cccn3CCN2C(=S)Nc2cccc(F)c2)cc1 (centres undefined) | inconclusive: 49.5%
O=C(CNCC1CCCCC1)Nc1cccc(S(=O)(=O)N2CCOCC2)c1 | inconclusive: 48.2%
O=C(c1cccs1)C1CCCN(Cc2nc(Cc3ccccc3F)no2)C1 (centres undefined) | inconclusive: 33.4%
O=c1c2c3c(sc2nc(NCCO)n1CCc1ccccc1)CCCCC3 | inconclusive: 35.7%
CC(=O)c1cccc(N(CC(=O)NC2CCCC2)C(=O)c2csnn2)c1 | inactive: 3.48%
N#Cc1ncc(-c2ccc3c(c2)OCCOCCOCCOCCOCCO3)nc1C#N | inactive: -2.01%
CCCCC(=O)NC(=S)Nc1cccc(NC(=O)c2ccccc2)c1 | inactive: 17.1%
COc1cc(CNc2ccc3[nH]c(=O)[nH]c3c2)ccc1OCc1ccccc1C | inconclusive: 68.5%
COc1ccc(-c2ccnc3c(C(=O)O)cnn23)cc1 | inactive: -0.935%
COc1cc(C(=O)NC(C(=O)Nc2cccc(C(C)=O)c2)C(C)C)cc(OC)c1OC (centres undefined) | inactive: 5.87%
CCc1ccc2c(c1)C(c1ccc([N+](=O)[O-])cc1)=NNC(c1ccccc1)=N2 | inconclusive: 37.2%
CNC(=S)N/N=C(\C)c1ccc(C(C)(C)C)cc1 | inconclusive: 34.6%
COc1cc(OC)cc(-c2nnc(SCC(=O)N3CCOCC3)o2)c1 | inactive: 4.94%
CNC(=S)N1CCc2cc(OC)c(OC)cc2C1COc1ccc(OC)cc1 (centres undefined) | inactive: 1.68%

In another format: entries from further up.
CCCCC(CC)CNC(=O)c1cc2ccccc2c(=O)o1 (centres undefined)
  activation: inconclusive: 39.3%
O=C(CNCC1CCCCC1)Nc1cccc(S(=O)(=O)N2CCOCC2)c1
  activation: inconclusive: 48.2%
O=C(c1cccs1)C1CCCN(Cc2nc(Cc3ccccc3F)no2)C1 (centres undefined)
  activation: inconclusive: 33.4%
CCc1ccc2c(c1)C(c1ccc([N+](=O)[O-])cc1)=NNC(c1ccccc1)=N2
  activation: inconclusive: 37.2%

Remaining list, next part

Compound | activation
O=C(NC(=S)Nc1ccccc1N1CCOCC1)c1cccs1 | inconclusive: 31.6%
CC(Oc1ccc(Cl)cc1Cl)C(=O)Nc1ccc(O)cc1 (centres undefined) | inconclusive: 31.7%
CC(C)COC(=O)Nc1nnc(Cc2ccccc2)s1 | inconclusive: 32.3%
COc1ccc(CC(=O)Nc2nc(-c3ccc(F)c(F)c3)cs2)cc1OC | inconclusive: 77.1%
CC(C)c1ccc(C(O)P(=O)(OC2CCCCC2)OC2CCCCC2)cc1 (centres undefined) | inconclusive: 51.6%
COc1ccc(OC)c(N(CC(=O)NCC2CCCO2)S(=O)(=O)c2ccccc2)c1 (centres undefined) | inactive: 5.82%
CCN(CC)C(=O)CSc1nnc([C@H](Cc2c[nH]c3ccccc23)NC(=O)OC(C)(C)C)o1 | inconclusive: 55.5%
Cc1ccc(NC(=S)NCC(C)CSc2ccc(Cl)cc2)cc1 (centres undefined) | inconclusive: 34.9%
COC1(c2cc(-c3ccccc3)nc(N)n2)CCCCC1 | inconclusive: 36%
CC1CCCC(NC(=O)Cc2ccc(Br)cc2)C1C (centres undefined) | inconclusive: 32.7%
O=C(Nc1nnc(-c2ccc(Br)cc2)o1)c1cccc(N2C(=O)CCC2=O)c1 | inactive: -4.12%
CCOP(=O)(c1ccccc1)c1nc(-c2ccccc2C)oc1NCc1ccccc1 (centres undefined) | inconclusive: 62.1%
C/C(=N\NC(=O)c1ccc2c(c1)OCO2)c1ccc(O)cc1 | inconclusive: 39.9%
CCOc1ccc(C(C)NC(=S)NCc2ccc(Cl)cc2)cc1 (centres undefined) | inconclusive: 65.2%
O=C(N/N=C/c1sc2ccccc2c1O)c1ccccc1 | inactive: 25.4%
O=C(N=C1N=C2C=CC=CN2Cc2ccccc21)c1ccc(S(=O)(=O)N2CCOCC2)cc1 | inconclusive: 37.4%
CCN1CCN(CCCN(Cc2ccco2)C(=S)Nc2ccccc2Cl)CC1 | inactive: -2.34%
NC(=O)c1ccsc1NC(=O)COC(=O)c1ccc(Cl)cc1 | inactive: 9.91%
O=C(COc1c(Br)cc(Br)c2cccnc12)N1CCc2ccccc2C1 | inconclusive: 30.1%
C=CCn1c(=S)[nH]c2cc(C(=O)Nc3ccc(OC)c(OC)c3)ccc2c1=O | inconclusive: 38.2%

Compound | activation
COc1cc(NC(=O)c2ccc(Br)o2)ccc1NC(=O)c1ccccc1Cl | inconclusive: 40.4%
COc1ccc(Cc2nc(C(=O)Nc3ccccc3)cs2)cc1 | inconclusive: 32%
CC(CCc1ccccc1)NC(=O)CN(C)Cc1ccccc1F (centres undefined) | inconclusive: 51.7%
CC(C)CC(=O)Nc1ccc2ccccc2c1 | inconclusive: 40.9%
CCCCC/C=C/C1=CC(=O)C[C@H](c2ccc(OC)cc2)C1 | inconclusive: 31.7%
O=C(Nc1ccc2ccccc2n1)c1ccc(Cl)cc1 | inconclusive: 75.9%
CCOc1ccc(NC(=O)CN(C)C(=O)c2cn(-c3ccc(F)cc3)nc2-c2cccc(OC)c2)cc1OCC | inactive: 1.2%
COc1ccc(OC)c(CNc2ncc(-c3ccc(F)cc3)n2C)c1 | inactive: -9.11%
Cc1cccc(C)c1OCc1nc2ccccc2c(=O)n1/N=C/c1c[nH]c2ccccc12 | inactive: 4.28%
Cc1ccc(NC(=O)c2cccc(S(C)(=O)=O)c2)cc1 | inconclusive: 46.9%
COc1ccc(C(c2c(C)n(C)n(-c3ccccc3)c2=O)c2c(C)n(C)n(-c3ccccc3)c2=O)c(OC)c1OC | inactive: -1.94%
Cc1cccc(NC(=S)NCc2ccc(F)cc2)c1C | inconclusive: 40.9%
Cc1ccc(NC(=O)c2ccccc2NC(=O)Cc2ccccc2)cc1 | inconclusive: 37.4%
CC(=O)NC1CC2CCCC(C1)N2C(=O)Nc1ccc(Cl)c(C(F)(F)F)c1 (centres undefined) | inconclusive: 33%
O=C(c1ccc(F)cc1)C1CCN(Cc2ccc(F)cc2)CC1 | inconclusive: 77.8%
Cc1ccc(S(=O)(=O)n2nc(C)cc2C)cc1 | inactive: -4.37%
COc1cc(-c2nc3ccccn3c2/N=C/c2ccccc2)ccc1O | inactive: 11.2%
O=C(Nc1cccnc1)Nc1cc(Cl)cc(Cl)c1 | inconclusive: 60.1%
CCn1cc(Br)c(C(=O)Nc2ccccc2C(=O)OC)n1 | inconclusive: 32.7%
